The values below come from article doi:10.1101/2025.04.08.647765.

The chains behind the UniProt entries cited, without tags or fusion partners. Where a name states a change or a piece, a line headed by the entry shows the natural chain unless it says otherwise. A line that says so, or that is headed by a name, gives the form on record, which may keep a tag or linker.
UniProt P61586: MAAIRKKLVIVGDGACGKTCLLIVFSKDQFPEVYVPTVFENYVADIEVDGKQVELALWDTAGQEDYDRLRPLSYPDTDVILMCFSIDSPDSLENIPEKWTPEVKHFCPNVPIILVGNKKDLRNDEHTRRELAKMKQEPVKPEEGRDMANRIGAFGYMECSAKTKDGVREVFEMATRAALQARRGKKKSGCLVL
Endogenous LARG (MDCK cells) (A0A8I3NRY3, form named): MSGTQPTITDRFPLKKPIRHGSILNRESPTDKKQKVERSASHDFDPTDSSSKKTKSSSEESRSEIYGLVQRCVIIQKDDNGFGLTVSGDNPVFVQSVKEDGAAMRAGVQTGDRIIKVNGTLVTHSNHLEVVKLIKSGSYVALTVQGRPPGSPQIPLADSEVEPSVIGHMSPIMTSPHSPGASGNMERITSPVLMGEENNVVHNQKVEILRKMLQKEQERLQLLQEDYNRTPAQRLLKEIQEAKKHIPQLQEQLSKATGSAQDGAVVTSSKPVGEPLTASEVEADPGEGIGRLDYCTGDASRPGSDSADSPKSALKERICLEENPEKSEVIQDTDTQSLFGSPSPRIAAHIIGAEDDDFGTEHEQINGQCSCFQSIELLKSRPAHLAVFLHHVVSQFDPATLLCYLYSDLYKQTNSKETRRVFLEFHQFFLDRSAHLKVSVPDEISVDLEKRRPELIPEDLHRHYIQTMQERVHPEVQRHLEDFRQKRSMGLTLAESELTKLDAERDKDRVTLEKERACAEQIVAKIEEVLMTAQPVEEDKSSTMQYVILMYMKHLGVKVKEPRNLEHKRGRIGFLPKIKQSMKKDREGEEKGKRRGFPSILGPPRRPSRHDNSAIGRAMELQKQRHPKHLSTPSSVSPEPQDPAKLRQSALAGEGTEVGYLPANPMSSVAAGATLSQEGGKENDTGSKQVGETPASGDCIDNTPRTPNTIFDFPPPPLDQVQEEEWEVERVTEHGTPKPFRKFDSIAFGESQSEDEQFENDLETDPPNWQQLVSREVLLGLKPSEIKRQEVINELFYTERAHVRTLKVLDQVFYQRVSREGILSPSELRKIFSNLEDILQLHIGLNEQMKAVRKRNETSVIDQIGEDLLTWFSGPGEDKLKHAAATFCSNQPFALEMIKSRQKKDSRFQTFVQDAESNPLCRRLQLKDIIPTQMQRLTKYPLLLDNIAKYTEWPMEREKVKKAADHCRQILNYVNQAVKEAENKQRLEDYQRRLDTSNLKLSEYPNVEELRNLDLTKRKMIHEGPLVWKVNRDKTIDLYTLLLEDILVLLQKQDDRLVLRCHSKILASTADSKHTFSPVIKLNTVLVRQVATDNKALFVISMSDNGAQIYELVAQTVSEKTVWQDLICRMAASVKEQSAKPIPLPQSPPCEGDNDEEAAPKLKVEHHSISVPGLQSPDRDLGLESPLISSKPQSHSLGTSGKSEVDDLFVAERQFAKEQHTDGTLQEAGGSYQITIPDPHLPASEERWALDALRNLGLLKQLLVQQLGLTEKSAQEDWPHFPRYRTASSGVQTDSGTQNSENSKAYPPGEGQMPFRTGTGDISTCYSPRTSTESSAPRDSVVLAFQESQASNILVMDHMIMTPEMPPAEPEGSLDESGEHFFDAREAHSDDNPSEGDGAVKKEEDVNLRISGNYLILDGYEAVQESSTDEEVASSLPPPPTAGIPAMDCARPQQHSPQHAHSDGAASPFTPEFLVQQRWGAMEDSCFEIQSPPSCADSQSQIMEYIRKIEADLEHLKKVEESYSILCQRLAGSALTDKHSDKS
UniProt O15085: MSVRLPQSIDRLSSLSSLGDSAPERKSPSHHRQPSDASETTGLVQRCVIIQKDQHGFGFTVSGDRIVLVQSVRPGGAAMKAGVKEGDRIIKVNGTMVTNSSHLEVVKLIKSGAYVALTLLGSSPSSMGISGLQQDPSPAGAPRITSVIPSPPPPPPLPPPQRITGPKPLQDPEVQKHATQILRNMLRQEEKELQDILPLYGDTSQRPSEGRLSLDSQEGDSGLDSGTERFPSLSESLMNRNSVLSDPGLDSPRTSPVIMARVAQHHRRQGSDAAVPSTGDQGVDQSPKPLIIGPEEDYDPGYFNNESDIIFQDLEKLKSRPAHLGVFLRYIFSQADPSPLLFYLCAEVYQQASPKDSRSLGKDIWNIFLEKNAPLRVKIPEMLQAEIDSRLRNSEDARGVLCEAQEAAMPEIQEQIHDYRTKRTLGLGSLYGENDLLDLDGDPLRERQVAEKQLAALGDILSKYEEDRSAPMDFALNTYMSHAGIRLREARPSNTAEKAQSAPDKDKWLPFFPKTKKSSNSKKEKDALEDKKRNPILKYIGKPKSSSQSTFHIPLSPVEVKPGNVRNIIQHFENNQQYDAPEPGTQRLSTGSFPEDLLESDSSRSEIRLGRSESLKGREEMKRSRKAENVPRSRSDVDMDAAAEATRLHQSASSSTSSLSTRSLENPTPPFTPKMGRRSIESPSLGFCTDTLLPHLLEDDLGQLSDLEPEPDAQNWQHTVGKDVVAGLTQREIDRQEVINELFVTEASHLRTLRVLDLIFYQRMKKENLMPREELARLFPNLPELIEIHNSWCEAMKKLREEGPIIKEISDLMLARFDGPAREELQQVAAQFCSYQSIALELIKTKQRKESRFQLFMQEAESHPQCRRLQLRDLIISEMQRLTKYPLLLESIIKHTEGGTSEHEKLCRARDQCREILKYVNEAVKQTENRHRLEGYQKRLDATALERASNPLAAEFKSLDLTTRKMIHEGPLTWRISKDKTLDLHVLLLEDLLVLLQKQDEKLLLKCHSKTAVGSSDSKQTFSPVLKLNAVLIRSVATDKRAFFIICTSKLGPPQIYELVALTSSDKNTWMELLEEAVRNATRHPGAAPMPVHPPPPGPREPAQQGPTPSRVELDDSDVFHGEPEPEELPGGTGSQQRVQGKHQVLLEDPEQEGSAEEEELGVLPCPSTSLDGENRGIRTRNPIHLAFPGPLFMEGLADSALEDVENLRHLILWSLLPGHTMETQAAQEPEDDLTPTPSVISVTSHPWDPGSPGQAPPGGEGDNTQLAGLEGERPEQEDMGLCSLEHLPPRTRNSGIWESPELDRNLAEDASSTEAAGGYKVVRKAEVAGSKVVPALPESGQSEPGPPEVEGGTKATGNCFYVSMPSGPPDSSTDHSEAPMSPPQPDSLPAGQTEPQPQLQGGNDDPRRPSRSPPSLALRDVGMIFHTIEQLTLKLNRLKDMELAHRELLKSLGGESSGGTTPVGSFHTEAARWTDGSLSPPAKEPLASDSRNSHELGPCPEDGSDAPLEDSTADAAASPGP

One assay deals with GST-RhoA (G17A) (UniProt P61586). Description: pull-down.
Assay [1] has as its target purified recombinant FLAG-tagged Solo (UniProt Q8TER5). Description: co-IP.

These are yes or no findings as the source states them, for the method shown. For some assays here: Binding seen in cells or lysates may run through a third protein. Some entries that bind do so weakly or less than the wild type.

For “Endogenous LARG (MDCK cells) (from UniProt A0A8I3NRY3 1-1543)”, the binding result with GST-RhoA (G17A) is recorded as “binds”.
On to “purified recombinant FLAG-tagged PRG (from UniProt O15085 1-1522)”, for which the binding entry in assay [1] was “binds”.
